PubChem BioAssay AID1159584 – Peter MacCallum Cancer Centre | 2016

Test: 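Knock-downs that harm CDH1-null cells more than parental MCF10A cells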 (primary screen)
Cell system: human MCF10A breast epithelial cells, parental and CDH1-null
Reagents: siRNA against human genes
Measurement: 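ATP luminescence (CellTiter-Glo) viability per line relative to mean mock wells over all plates, and the ratio of CDH1-null to parental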
Reading the numbers: CDH1-null / parental viability ratio: higher = CDH1-null cells survive relatively better than parental; CDH1-null viability vs mock: higher = more viable CDH1-null cells; parental viability vs mock: higher = more viable parental cells
Shown is a random part of about 18,000 reagents. The numbers tell different reagents against one gene apart. Not stated in the record: the amount of reagent, the time to read-out.

| gene | siRNA no. | CDH1-null / parental viability ratio | CDH1-null viability vs mock (fraction of mock) | parental viability vs mock (fraction of mock) |
| --- | --- | --- | --- | --- |
| MIDN | 1 | 1.21 | 0.68 | 0.56 |
| TMEM82 | 1 | 1.04 | 0.49 | 0.47 |
| DDX46 | 1 | 0.93 | 0.52 | 0.56 |
| LRP3 | 1 | 0.92 | 0.74 | 0.8 |
| MACROD2 | 1 | 1.22 | 1.07 | 0.88 |
| MYL5 | 1 | 1.19 | 0.64 | 0.54 |
| TWIST1 | 1 | 0.91 | 0.5 | 0.55 |
| EIF4E2 | 1 | 0.67 | 0.42 | 0.63 |
| CPEB3 | 1 | 0.84 | 0.67 | 0.8 |
| GSTA3 | 1 | 1.01 | 0.79 | 0.78 |
| RAB41 | 1 | 1.07 | 0.81 | 0.76 |
| KCNIP3 | 1 | 1.05 | 0.85 | 0.81 |
| B4GALT7 | 1 | 1.11 | 0.82 | 0.74 |
| GPR15LG | 1 | 1.11 | 0.8 | 0.72 |
| AFP | 1 | 0.77 | 0.58 | 0.75 |
| SH3GL1 | 1 | 1.13 | 0.43 | 0.38 |
| BNIP2 | 1 | 0.98 | 0.8 | 0.82 |
| H1-6 | 1 | 1.01 | 0.88 | 0.87 |
| PPP2CB | 1 | 1.03 | 0.77 | 0.75 |
| HMGN5 | 1 | 0.91 | 0.7 | 0.77 |
| C17orf58 | 1 | 0.83 | 0.75 | 0.9 |
| RCC1L | 1 | 0.76 | 0.6 | 0.79 |
| EPHX2 | 1 | 1.05 | 1.18 | 1.12 |
| HSF2 | 1 | 1.24 | 1.12 | 0.9 |
| CSAG2 | 1 | 1.11 | 0.84 | 0.76 |
| CSAG2 | 2 | 1.16 | 0.92 | 0.79 |
| IFI27 | 1 | 1.01 | 0.69 | 0.68 |
| ID3 | 1 | 0.92 | 1.04 | 1.13 |
